Results published in US8216786B2, “Genetic polymorphisms associated with cardiovascular diseases, methods of detection and uses thereof” (Celera Corporation, priority 2008, dated 2012).
Further values from the same series stand in other lists.

Test system: individuals who have previously had an MI
Assay: CARE trial: effect of pravastatin vs placebo on coronary events (endpt1, rmi) by SNP genotype subgroup
Assay type: in vivo, human
Procedure: In Tables 21-22, the column labeled “Endpoint” indicates whether the endpoint that was analyzed was the primary endpoint of the CARE study (a composite endpoint of fatal coronary event or nonfatal MI, and identified as “endpt1”) or a composite endpoint of confirmed fatal or nonfatal MI (identified as “rmi”). […] As used herein, the term “benefit” (with respect to a preventive or therapeutic drug treatment) is defined as achieving a reduced risk for a disease that the drug is intended to treat or prevent (e.g., CVD such as CHD, particularly MI, or hypertension) by administering the drug treatment, compared with the risk for the disease in the absence of receiving the drug treatment (or receiving a placebo in lieu of the drug treatment) for the same genotype. […] J. […] (1996) New England Journal of Medicine 335: 1001-1009. […] A well-documented MI was one of the enrollment criteria for entry into the CARE study. Patients were enrolled in the CARE trial from 80 participating study centers. […] For the study of CARE described in this Example and shown in Tables 21-22, two endpoints were investigated: the primary endpoint of CARE (a composite endpoint of fatal coronary event or nonfatal MI, and identified as “endpt1” in the Endpoint column of Tables 21-22) and a composite endpoint of confirmed fatal or nonfatal MI (identified as “rmi” in the Endpoint column of Tables 21-22). […] HR stands for Hazard Ratio, which is a concept similar to Odds Ratio (OR). The HR in event-free survival analysis is the effect of an explanatory variable on the hazard or risk of an event. […] In Table 21, p-interaction values were calculated. An interaction (or effect modification) is formed when a third variable modifies the relation between an exposure and outcome. […] Genotype and drug interaction is present when the effect of statins (incidence rate of disease in statin-treated group, as compared to placebo) differs in patients with different genotypes.

[1] = rmi, hCV487868 rs6439132, strata TC + CC
[2] = rmi, hCV487868 rs6439132, strata TT
[3] = rmi, hCV621313 rs471364 C9orf52, strata CC
[4] = rmi, hCV621313 rs471364 C9orf52, strata CT
[5] = rmi, hCV621313 rs471364 C9orf52, strata TT
[6] = rmi, hCV904974 rs439401, strata TC + CC
[7] = rmi, hCV904974 rs439401, strata TT
[8] = rmi, hCV1682755 rs9424977 NEGR1, strata CT + CC
[9] = rmi, hCV1682755 rs9424977 NEGR1, strata TT
[10] = rmi, hCV2195496 rs4982795, strata CC
[11] = rmi, hCV2195496 rs4982795, strata CT + TT
[12] = rmi, hCV2948766 rs4684343 CNTN4, strata AA
[13] = rmi, hCV2948766 rs4684343 CNTN4, strata GA + GG
[14] = rmi, hCV10048483 rs2145270, strata CC
[15] = rmi, hCV10048483 rs2145270, strata CT + TT
[16] = rmi, hCV11231076 rs4857855, strata CC
[17] = rmi, hCV11231076 rs4857855, strata CT + TT
[18] = rmi, hCV11446935 rs2409722 XKR6, strata GG
[19] = rmi, hCV11446935 rs2409722 XKR6, strata GT + TT
[20] = rmi, hCV11466079 rs157580 TOMM40, strata GA + AA
[21] = rmi, hCV11466079 rs157580 TOMM40, strata GG
[22] = rmi, hCV11592758 rs6265 BDNF, strata CC
[23] = rmi, hCV11592758 rs6265 BDNF, strata CT + TT
[24] = rmi, hCV11703905 rs1169301 TCF1, strata CC
[25] = rmi, hCV11703905 rs1169301 TCF1, strata CT + TT
[26] = rmi, hCV11856381 rs2197089, strata AG + AA
[27] = rmi, hCV11856381 rs2197089, strata GG
[28] = rmi, hCV15954645 rs2954029, strata AA
[29] = rmi, hCV15954645 rs2954029, strata AT
[30] = rmi, hCV15954645 rs2954029, strata TT
[31] = rmi, hCV16140621 rs2156552, strata AT + AA
[32] = rmi, hCV16140621 rs2156552, strata TT
[33] = rmi, hCV27480853 rs3766430 SSBP3, strata CC
[34] = rmi, hCV27480853 rs3766430 SSBP3, strata TC + TT
[35] = rmi, hCV28960526 rs6853079 TSPAN5, strata AA
[36] = rmi, hCV28960526 rs6853079 TSPAN5, strata AT + TT
[37] = rmi, hCV29480044 rs10516433 TSPAN5, strata CC
[38] = rmi, hCV29480044 rs10516433 TSPAN5, strata CT + TT
[39] = rmi, hCV29684678 rs10486788, strata CC
[40] = rmi, hCV29684678 rs10486788, strata CG
[41] = rmi, hCV29684678 rs10486788, strata GG
[42] = rmi, hCV30136303 rs6914527, strata GC + CC
[43] = rmi, hCV30136303 rs6914527, strata GG
[44] = rmi, hCV30454150 rs10516434 TSPAN5, strata CC
[45] = rmi, hCV30454150 rs10516434 TSPAN5, strata CT ± TT
[46] = rmi, hCV30534667 rs4996259 MAGI2, strata AG + AA
[47] = rmi, hCV30534667 rs4996259 MAGI2, strata GG
[48] = rmi, hCV30764105 rs12521915 ITGA2, strata CC
[49] = rmi, hCV30764105 rs12521915 ITGA2, strata GC + GG
[50] = rmi, hDV70938014 rs17321515, strata AA
[51] = rmi, hDV70938014 rs17321515, strata AG
[52] = rmi, hDV70938014 rs17321515, strata GG

CC[C@H](C)C(=O)O[C@H]1C[C@H](O)C=C2C=C[C@H](C)[C@H](CC[C@@H](O)C[C@@H](O)CC(=O)O)[C@H]21 [pravastatin]
NONEVENT (Pravastatin arm) (endpt1, hcV15870728 rs2943245 C10orf64, strata CT + TT): 922
EVENTS (Pravastatin arm) [1]: 60
NONEVENT (Pravastatin arm) [1]: 573
EVENTS (Pravastatin arm) [2]: 51
NONEVENT (Pravastatin arm) [2]: 718
EVENTS (Pravastatin arm) [3]: 2
NONEVENT (Pravastatin arm) [3]: 16
EVENTS (Pravastatin arm) [4]: 20
NONEVENT (Pravastatin arm) [4]: 288
EVENTS (Pravastatin arm) [5]: 89
NONEVENT (Pravastatin arm) [5]: 984
EVENTS (Pravastatin arm) [6]: 101
NONEVENT (Pravastatin arm) [6]: 1090
EVENTS (Pravastatin arm) [7]: 10
NONEVENT (Pravastatin arm) [7]: 194
EVENTS (Pravastatin arm) [8]: 73
NONEVENT (Pravastatin arm) [8]: 941
EVENTS (Pravastatin arm) [9]: 38
NONEVENT (Pravastatin arm) [9]: 347
EVENTS (Pravastatin arm) [10]: 18
NONEVENT (Pravastatin arm) [10]: 266
EVENTS (Pravastatin arm) [11]: 92
NONEVENT (Pravastatin arm) [11]: 1020
EVENTS (Pravastatin arm) [12]: 25
NONEVENT (Pravastatin arm) [12]: 244
EVENTS (Pravastatin arm) [13]: 85
NONEVENT (Pravastatin arm) [13]: 1042
EVENTS (Pravastatin arm) [14]: 22
NONEVENT (Pravastatin arm) [14]: 187
EVENTS (Pravastatin arm) [15]: 89
NONEVENT (Pravastatin arm) [15]: 1103
EVENTS (Pravastatin arm) [16]: 65
NONEVENT (Pravastatin arm) [16]: 885
EVENTS (Pravastatin arm) [17]: 46
NONEVENT (Pravastatin arm) [17]: 405
EVENTS (Pravastatin arm) [18]: 39
NONEVENT (Pravastatin arm) [18]: 325
EVENTS (Pravastatin arm) [19]: 72
NONEVENT (Pravastatin arm) [19]: 960
EVENTS (Pravastatin arm) [20]: 98
NONEVENT (Pravastatin arm) [20]: 1081
EVENTS (Pravastatin arm) [21]: 13
NONEVENT (Pravastatin arm) [21]: 207
EVENTS (Pravastatin arm) [22]: 61
NONEVENT (Pravastatin arm) [22]: 880
EVENTS (Pravastatin arm) [23]: 48
NONEVENT (Pravastatin arm) [23]: 434
EVENTS (Pravastatin arm) [24]: 44
NONEVENT (Pravastatin arm) [24]: 627
EVENTS (Pravastatin arm) [25]: 67
NONEVENT (Pravastatin arm) [25]: 661
EVENTS (Pravastatin arm) [26]: 84
NONEVENT (Pravastatin arm) [26]: 1006
EVENTS (Pravastatin arm) [27]: 27
NONEVENT (Pravastatin arm) [27]: 279
EVENTS (Pravastatin arm) [28]: 36
NONEVENT (Pravastatin arm) [28]: 376
EVENTS (Pravastatin arm) [29]: 46
NONEVENT (Pravastatin arm) [29]: 613
EVENTS (Pravastatin arm) [30]: 28
NONEVENT (Pravastatin arm) [30]: 296
EVENTS (Pravastatin arm) [31]: 30
NONEVENT (Pravastatin arm) [31]: 416
EVENTS (Pravastatin arm) [32]: 81
NONEVENT (Pravastatin arm) [32]: 876
EVENTS (Pravastatin arm) [33]: 30
NONEVENT (Pravastatin arm) [33]: 262
EVENTS (Pravastatin arm) [34]: 81
NONEVENT (Pravastatin arm) [34]: 1029
EVENTS (Pravastatin arm) [35]: 60
NONEVENT (Pravastatin arm) [35]: 796
EVENTS (Pravastatin arm) [36]: 51
NONEVENT (Pravastatin arm) [36]: 495
EVENTS (Pravastatin arm) [37]: 60
NONEVENT (Pravastatin arm) [37]: 795
EVENTS (Pravastatin arm) [38]: 51
NONEVENT (Pravastatin arm) [38]: 491
EVENTS (Pravastatin arm) [39]: 9
NONEVENT (Pravastatin arm) [39]: 89
EVENTS (Pravastatin arm) [40]: 40
NONEVENT (Pravastatin arm) [40]: 526
EVENTS (Pravastatin arm) [41]: 62
NONEVENT (Pravastatin arm) [41]: 672
EVENTS (Pravastatin arm) [42]: 77
NONEVENT (Pravastatin arm) [42]: 797
EVENTS (Pravastatin arm) [43]: 34
NONEVENT (Pravastatin arm) [43]: 493
EVENTS (Pravastatin arm) [44]: 60
NONEVENT (Pravastatin arm) [44]: 799
EVENTS (Pravastatin arm) [45]: 51
NONEVENT (Pravastatin arm) [45]: 489
EVENTS (Pravastatin arm) [46]: 47
NONEVENT (Pravastatin arm) [46]: 667
EVENTS (Pravastatin arm) [47]: 64
NONEVENT (Pravastatin arm) [47]: 624
EVENTS (Pravastatin arm) [48]: 54
NONEVENT (Pravastatin arm) [48]: 491
EVENTS (Pravastatin arm) [49]: 57
NONEVENT (Pravastatin arm) [49]: 800
EVENTS (Pravastatin arm) [50]: 34
NONEVENT (Pravastatin arm) [50]: 363
EVENTS (Pravastatin arm) [51]: 47
NONEVENT (Pravastatin arm) [51]: 620
EVENTS (Pravastatin arm) [52]: 30
NONEVENT (Pravastatin arm) [52]: 309
